From patent US20240247031A1, “COMPOSITION FOR TREATING CANCER CONTAINING TELOMERASE-TARGETING GNRH ANTAGONIST-DERIVED PEPTIDE HS1002” (Research & Business Foundation Sungkyunkwan University, priority 2023, published 2024)
For at least one compound, name, drawing or mass did not settle the structure. Where a SMILES comes first, the peptide text is derived from it. [ ]: non-standard residue; d: D form. pGlu = O=C1CC[C@@H](C(=O)O)N1

System: A549
Assay: MTT cytotoxicity on various cancer cells (Table 1)
Assay type: cell-based, human
Conditions: lung cancer cell line A549, 48 h
Method: To evaluate anticancer activities of the produced peptides on various types of cancer cells, MTT analysis was performed. Human prostate cancer cell lines (LNCaP, PC3, and DU145), human breast cancer cell lines (MDA-MB-231 and MCF-7), lung cancer cell line (A549), and ovarian cancer cell line (SKOV3) were cultured in RPMI media supplemented with 1% penicillin/streptomycin and 1% fetal bovine serum (all from Life Technologies, Grand Island, NY). The cells were seeded in 96-well plates containing 100 μL of growth media for 24 h. The media were removed, and then 100 μL of the peptide (solvent DPBS) at each concentration was added to each well and incubated at 37° C. for 48 h. After incubation for 48 h, 100 μL of MTT reagent was added to each well. The cells were incubated at 37° C. for 4 h, and then the supernatant was removed. Formazan crystals were dissolved in 100 μL of DMSO with gentle stirring at 37° C. for 10 min. The absorbance per well was measured at 540 nm using a VERSA max microplate reader (Molecular Devices Corp.).

SMILES: CCNC(=O)[C@@H]1CCCN1C(=O)[C@@H](NC(=O)[C@H](Cc1ccccc1)NC(=O)[C@H](C)NC(=O)[C@H](CC(C)C)NC(=O)[C@H](CCCNC(=N)N)NC(=O)[C@H](Cc1ccc(O)cc1)NC(=O)[C@H](CO)NC(=O)[C@H](Cc1c[nH]c2ccccc12)NC(=O)[C@H](Cc1c[nH]cn1)NC(=O)[C@@H]1CCC(=O)N1)[C@@H](C)CC [HS1004] ([pGlu]HWSYRLAFIP-NHEt; C-terminus assumed)
- Cytotoxicity (IC50) A549: 5.14 ± 0.27 mg/L
